This test relates to P388 leukemia ip, CD2F1 mice, survival T/C. Description: NCI In Vivo Anticancer Drug Screen. Data for tumor model P388 Leukemia (intraperitoneal) in CD2F1 (CDF1) mice. The settings on record: T/C endpoint: median survival time, higher T/C = longer survival.
Setting [1] is: dose: 240.0 mg/kg/injection, schedule: Q01DX005 (ip), vehicle: saline with Tween-80.
Setting [2] is: dose: 200.0 mg/kg/injection, schedule: Q01DX005 (ip), vehicle: saline with Tween-80.
The mark [3] stands for this setting: dose: 12.5 mg/kg/injection, schedule: Q01DX009 (ip), vehicle: saline.
The mark [4] stands for this setting: dose: 50.0 mg/kg/injection, schedule: Q01DX009 (ip), vehicle: saline.
The mark [5] stands for this setting: dose: 100.0 mg/kg/injection, schedule: Q01DX009 (ip), vehicle: saline.
The mark [6] stands for this setting: dose: 200.0 mg/kg/injection, schedule: Q01DX009 (ip), vehicle: saline.
Setting [7] is: dose: 100.0 mg/kg/injection, schedule: Q01DX005 (ip), vehicle: Klucel (hydroxypropylcellulose) (HPC).
[8] abbreviates: dose: 200.0 mg/kg/injection, schedule: Q01DX005 (ip), vehicle: Klucel (hydroxypropylcellulose) (HPC).
[9] abbreviates: dose: 100.0 mg/kg/injection, schedule: Q01DX005 (ip), vehicle: saline with Tween-80.

Structures are written as SMILES. The list shows only some results of the screen, not a fair sample: it gathers tests that were run many times, whatever their T/C, doses with no T/C, and many T/C values between a quarter and a half above the control. Further doses and runs are listed elsewhere. T/C is the treated group as % of the vehicle group. Some entries give survivors of the animals treated and no T/C: the source files T/C as zero there, which appears to mark a toxic dose or a test without result, not a measured value. Some survivor counts are full or nearly so, which does not show that the dose was tolerated: the source hardly ever lists a survival T/C far under the control, and the zero likely stands for such cases as well. Counts of survivors are from the toxicity check (mostly the fifth day) where no day follows; animals may have died later. Schedule codes are those of the source, read here as Q, the interval in days (D) or hours (H), X, the number of doses. Some structures stand for samples that the source files as different forms (salt, stereo form or complex); doses refer to the form tested. Signs of the kind (2×) count equal records among those shown. Some entries hold several experiments; the results are listed from low to high. Where survival is the endpoint, the PubChem record calls one and a half times the control and up active, and a quarter to a half above the control has no call in these data; cut-offs in other NCI protocols can differ. Some T/C values carry the count of animals alive at the toxicity check (mostly the fifth day); without a count, all were alive then.

Regarding `CCC1(O)CC2CN(CCc3c([nH]c4ccccc34)C(C(=O)OC)(c3cc4c(cc3OC)N(C)C3C(O)(C(=O)NCCO)C(O)C5(CC)C=CCN6CCC43C65)C2)C1` (centres undefined), the T/C is, setting by setting: (dose: 0.05 mg/kg/injection, schedule: Q01DX009 (ip), vehicle: saline) 136 % of control; (dose: 0.1 mg/kg/injection, schedule: Q01DX009 (ip), vehicle: saline) 133 % of control. In addition, the survivor count (dose: 1.6 mg/kg/injection, schedule: Q01DX009 (ip), vehicle: saline) was 3 of 6; the survivor count (dose: 3.2 mg/kg/injection, schedule: Q01DX009 (ip), vehicle: saline) was 1 of 6; the survivor count (dose: 5.0 mg/kg/injection, schedule: Q04DX003 (ip), vehicle: saline) is recorded as 4 of 8; the survivor count (dose: 6.4 mg/kg/injection, schedule: Q01DX009 (ip), vehicle: saline) is recorded as 0 of 6; the survivor count (dose: 12.8 mg/kg/injection, schedule: Q01DX009 (ip), vehicle: saline) is on record as 0 of 6.
With `N#CC(NCc1ccccc1)c1ccccc1` (centres undefined), under setting [1], the survivor count is 0 of 6.
With `Fc1ccccc1N=Cc1ccc(C=Nc2ccccc2F)cc1`, the survivor count is reported as 5 of 6 (dose: 60.0 mg/kg/injection, schedule: Q01DX005 (ip), vehicle: Klucel (hydroxypropylcellulose) (HPC)); 6 of 6 (dose: 120.0 mg/kg/injection, schedule: Q01DX005 (ip), vehicle: Klucel (hydroxypropylcellulose) (HPC)); 5 of 6 (dose: 240.0 mg/kg/injection, schedule: Q01DX005 (ip), vehicle: Klucel (hydroxypropylcellulose) (HPC)).
For the compound `CCCCCC(=O)C(CCCC)(c1nc2n(c1O)C(=N)N=N2)c1nc2n(c1O)C(=N)N=N2` (centres undefined), the T/C under setting [2] was 125 % of control.
In the case of `CCC[CH2][Sn]1([CH2]CCC)[O]OC(c2ccccc2)[O]1` (centres undefined), the T/C runs as follows: (dose: 0.75 mg/kg/injection, schedule: Q01DX009 (ip), vehicle: saline with Tween-80) 127 % of control; (dose: 1.32 mg/kg/injection, schedule: Q01DX009 (ip), vehicle: other) 127 % of control; (dose: 1.5 mg/kg/injection, schedule: Q01DX009 (ip), vehicle: saline with Tween-80) 127 % of control; (dose: 2.0 mg/kg/injection, schedule: Q01DX009 (ip), vehicle: other) 127 % of control; (dose: 3.0 mg/kg/injection, schedule: Q01DX009 (ip), vehicle: other) 140 % of control; (dose: 3.0 mg/kg/injection, schedule: Q01DX009 (ip), vehicle: saline with Tween-80) 136 % of control. Moreover, for the setting “dose: 2500.0 micrograms/kg/injection, schedule: Q04DX003 (ip), vehicle: saline with Tween-80”, the T/C was 135 % of control. Besides, the survivor count is, setting by setting: (dose: 6.0 mg/kg/injection, schedule: Q01DX009 (ip), vehicle: saline with Tween-80) 5 of 6; (dose: 12.0 mg/kg/injection, schedule: Q01DX009 (ip), vehicle: saline with Tween-80) 0 of 6; (dose: 24.0 mg/kg/injection, schedule: Q01DX009 (ip), vehicle: saline with Tween-80) 0 of 6.
For the compound `O=P(O)(O)OCC1(O)OCC(O)C(O)C1O` (centres undefined), the survivor count was 3 of 6 (dose: 100.0 mg/kg/injection, schedule: Q01DX005 (ip), vehicle: saline) and 0 of 6 (dose: 200.0 mg/kg/injection, schedule: Q01DX005 (ip), vehicle: saline).
Consider `CN(C)c1ccc(C(c2cc3c(cc2O)OCO3)N2CCCCC2)cc1` (centres undefined), for which the survivor count under setting [1] is given as 3 of 6.
With `CC(C)(C)C1=CC2(c3ccccn3)C(Cl)C(=O)N2NC(c2ccccn2)=N1` (centres undefined), the survivor count (dose: 400.0 mg/kg/injection, schedule: Q01DX009 (ip), vehicle: other) is on record as 3 of 6.
Take `O=C(CCCN1CCC(C(=O)c2ccc(F)cc2)CC1)c1ccc(F)cc1`: the survivor count runs as follows: (dose: 100.0 mg/kg/injection, schedule: Q01DX009 (ip), vehicle: saline with Tween-80) 4 of 6; (dose: 200.0 mg/kg/injection, schedule: Q01DX009 (ip), vehicle: saline with Tween-80) 0 of 6.
For the compound `COc1cccc(/C=C/C(C)=N/NC(N)=S)c1`, under setting [2], the survivor count is on record as 0 of 6.
Consider `COc1ccc2nc(NC(=O)Nc3ccc(C)c(NC(=O)Nc4nc5ccc(OC)cc5s4)c3)sc2c1`, for which the survivor count (dose: 200.0 mg/kg/injection, schedule: Q01DX009 (ip), vehicle: Klucel (hydroxypropylcellulose) (HPC)) is 6 of 6.
Regarding `O=C1C=CC2(CCCCC2)CC1`, the survivor count (dose: 100.0 mg/kg/injection, schedule: Q04DX003 (ip), vehicle: Klucel (hydroxypropylcellulose) (HPC)) is on record as 0 of 6; the survivor count (dose: 200.0 mg/kg/injection, schedule: Q04DX003 (ip), vehicle: Klucel (hydroxypropylcellulose) (HPC)) was 1 of 6; the survivor count (dose: 400.0 mg/kg/injection, schedule: Q04DX003 (ip), vehicle: Klucel (hydroxypropylcellulose) (HPC)) is reported as 0 of 6.
For the compound `CCCCCCCCCCCCCCCC[N+]1(CC)CCOCC1`, the T/C was 131 % of control [5 of 6 alive] (dose: 3.12 mg/kg/injection, schedule: Q01DX009 (ip), vehicle: saline) and 133 % of control [5 of 6 alive] under setting [3]. In addition, the survivor count is, setting by setting: under setting [3], 3 of 6; (dose: 25.0 mg/kg/injection, schedule: Q01DX009 (ip), vehicle: saline) 2 of 6 (2×) and 3 of 6; under setting [4], 0 of 6 (2×), 1 of 6, 2 of 6; under setting [5], 0 of 6 (2×); under setting [6], 0 of 6 (2×).
`CCN(CC)CCN1C(=O)c2cccc3cc([N+](=O)[O-])cc(c23)C1=O`: the T/C (dose: 50.0 mg/kg/injection, schedule: Q01DX005 (ip), vehicle: Klucel (hydroxypropylcellulose) (HPC)) was 141 % of control. Also, the survivor count is, setting by setting: under setting [7], 5 of 6; under setting [8], 0 of 6.
In the case of `O=C(Nc1ccc(Br)c2ccccc12)c1ccc2ccccc2c1O`, the survivor count under setting [1] is listed as 6 of 6.
With `CN=C(NC)c1ccc(NC(=O)/C=C/C(=O)Nc2ccc(C(=NC)NC)cc2)cc1`, the survivor count under setting [9] is reported as 2 of 6 and the survivor count under setting [2] is 0 of 6.
As for `COC1OC(C(C)O)C2OC(C)(C)OC12` (centres undefined), the survivor count (dose: 120.0 mg/kg/injection, schedule: Q01DX005 (ip), vehicle: saline with Tween-80) was 6 of 6.
For the compound `Nc1cccc(NCc2ccncc2)n1`, the T/C reads like this: (dose: 50.0 mg/kg/injection, schedule: Q01DX005 (ip), vehicle: Klucel (hydroxypropylcellulose) (HPC), evaluated on day 20) 109 [5 of 6 alive] and 122 % of control; (dose: 50.0 mg/kg/injection, schedule: Q01DX005 (ip), vehicle: Klucel (hydroxypropylcellulose) (HPC), evaluated on day 30) 105 and 108 % of control. Moreover, the survivor count under setting [8] is reported as 1 of 4.
Consider `CC(C)(C)NCC(O)CCl` (centres undefined), for which the survivor count (dose: 400.0 mg/kg/injection, schedule: Q01DX009 (ip), vehicle: water) is 1 of 6.
On to `CCCCCCOc1ccc(OCCCC[N+]2(CC)CCCCC2)cc1`, for which the survivor count was 0 of 6 under setting [4], 0 of 6 under setting [5] and 0 of 6 under setting [6].
Regarding `CC(C)[C@@H]1CC[C@@H](C)C[C@H]1N`, the survivor count is, setting by setting: under setting [9], 1 of 5; under setting [2], 0 of 5.
As to `Clc1ccc(C(Nc2nncs2)Nc2nncs2)c(Cl)c1`, under “dose: 400.0 mg/kg/injection, schedule: Q04DX002 (ip), vehicle: Klucel (hydroxypropylcellulose) (HPC)”, the T/C was 130 % of control.
Consider `CC(C)[N+](C)(C)CC(O)COc1ccccc1-c1ccccc1` (centres undefined), for which the survivor count was 0 of 6 under setting [5] and 0 of 6 under setting [6].
Regarding `C1CC2CC1CC2CNCC1CC2CCC1C2` (centres undefined), the survivor count is, setting by setting: under setting [7], 0 of 6; under setting [8], 0 of 6.
In the case of `CC(C)C(NC(=O)[C@H](C(C)C)N1C(=O)c2ccccc2C1=O)C(=O)O` (some centres undefined), the survivor count under setting [2] is on record as 5 of 5.
Regarding `O=S1(=O)CCCO1`, for the setting “dose: 400.0 mg/kg/injection, schedule: Q04DX003 (ip), vehicle: saline”, the survivor count is listed as 5 of 6.
In the case of `Cc1cc2nc3ccc(=[N+](C)C)cc-3sc2cc1N`, where the note is “dose: 200.0 mg/kg/injection, schedule: Q04DX003 (ip), vehicle: saline”, the survivor count is reported as 3 of 6.
